The values that follow come from patent publication US20110142812A1 (STC UNM, published 2011).

For assay [1], the target named is human FcγRIII (human). The assay is described as follows: surface plasmon resonance, human FcγR.
In assay [2] the target is human FcγRII (human). Briefly: surface plasmon resonance, human FcγR.

These are yes or no findings as the source states them, for the method shown. Binding calls can cover weak binding; strength is not graded here.

B1: Y175L CRP (recombinant mutant C-reactive protein in which tyrosine 175 is replaced by leucine) (ligand)
chain: QTDMSRKAFVFPKESDTSYVSLKAPLTKPLKAFTVCLHFYTELSSTRGYSIFSYATKRQDNEILIFWSKDIGYSFTVGGSEILFEVPEVTVAPVHICTSWESASGIVEFWVDGKPRVRKSLKKGYTVGAEASIILGQEQDSFGGNFEGSQSLVGDIGNVNMWDFVLSPDEINTILLGGPFSPNVLNWRALKYEVQGEVFTKPQLWP
notes: also called CRP mutant Y175L; recombinant mutant CRP (Y175L)
Turning to B1, the binding entry in assay [1] and in assay [2] was “binds” each time.
